This assay addresses human insulin receptor IR-B (overlapping peptides of the entire primary sequence on a SPOT membrane) (human) (UniProt P06213). Nature of the assay: SPOT peptide array of the insulin receptor probed with 125I-labelled soluble SorCS1.

Chains of the proteins cited; added tags and fusions are not shown. Lines headed by an entry give the natural chain unless they say otherwise; changes in a name come on top.
UniProt P06213: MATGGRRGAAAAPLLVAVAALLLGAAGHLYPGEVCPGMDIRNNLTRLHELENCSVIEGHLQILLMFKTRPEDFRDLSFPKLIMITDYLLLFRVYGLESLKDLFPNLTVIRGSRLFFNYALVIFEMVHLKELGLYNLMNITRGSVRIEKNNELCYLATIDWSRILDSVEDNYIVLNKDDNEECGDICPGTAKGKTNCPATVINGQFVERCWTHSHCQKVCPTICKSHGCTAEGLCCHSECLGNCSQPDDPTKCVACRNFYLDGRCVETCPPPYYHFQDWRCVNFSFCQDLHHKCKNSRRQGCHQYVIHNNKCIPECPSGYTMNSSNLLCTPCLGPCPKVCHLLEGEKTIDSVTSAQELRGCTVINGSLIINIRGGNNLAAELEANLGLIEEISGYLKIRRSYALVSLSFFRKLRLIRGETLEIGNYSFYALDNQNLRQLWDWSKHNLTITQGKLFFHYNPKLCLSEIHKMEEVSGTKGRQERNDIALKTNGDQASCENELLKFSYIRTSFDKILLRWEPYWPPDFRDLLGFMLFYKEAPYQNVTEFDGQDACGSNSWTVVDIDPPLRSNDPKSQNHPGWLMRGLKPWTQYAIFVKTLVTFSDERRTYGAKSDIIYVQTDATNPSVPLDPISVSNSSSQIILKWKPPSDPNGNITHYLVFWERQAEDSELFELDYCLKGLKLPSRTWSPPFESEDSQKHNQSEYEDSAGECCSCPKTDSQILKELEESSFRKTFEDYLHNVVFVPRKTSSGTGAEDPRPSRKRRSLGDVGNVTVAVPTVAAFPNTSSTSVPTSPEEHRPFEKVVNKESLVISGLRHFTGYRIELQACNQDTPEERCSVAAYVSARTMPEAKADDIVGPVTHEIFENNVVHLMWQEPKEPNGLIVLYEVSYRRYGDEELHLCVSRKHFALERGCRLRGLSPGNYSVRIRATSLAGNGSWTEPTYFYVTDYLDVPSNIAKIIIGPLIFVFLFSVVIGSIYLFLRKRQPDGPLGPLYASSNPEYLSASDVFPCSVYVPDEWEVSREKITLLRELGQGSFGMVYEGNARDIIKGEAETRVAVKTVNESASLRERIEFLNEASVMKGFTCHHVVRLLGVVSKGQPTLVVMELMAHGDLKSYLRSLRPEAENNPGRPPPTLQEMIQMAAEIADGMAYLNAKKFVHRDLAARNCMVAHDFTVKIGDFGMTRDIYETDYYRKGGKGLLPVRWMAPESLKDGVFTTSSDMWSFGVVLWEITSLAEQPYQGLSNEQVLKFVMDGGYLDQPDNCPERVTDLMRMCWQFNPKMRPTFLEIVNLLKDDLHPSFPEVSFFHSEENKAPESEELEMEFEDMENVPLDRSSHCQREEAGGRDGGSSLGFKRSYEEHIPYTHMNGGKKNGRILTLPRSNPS

Results are given in words; binding and its absence hold for the method and conditions named. Some entries that bind do so weakly or less than the wild type. Tags and fused reporters may be left off the sequences shown.

B1: soluble mouse SorCS1 protein (125I-tagged) (receptor)
chain: SGTEPEKIEPGEGASRSRRDMLKDGGQQGLGTGARDPGKATRFRMEELRLTSTTFALTGDSAHNQAMVHWSGHNSSVILILTKLYDYNLGSITESSLWRSTDYGTTYEKLNDKVGLKTILSYLYVCPTNKCKIMLLTDPEIESSLLISSDEGATYQKYRLNFYLQSLLFHPKQEDWILAYSQDQKLYSSAEFGRRWQLIQESVVPNRFYWSVMGSSKEPDLVHLEARTVDGHSIYLTCRMQNCTEANRNKPFPGYIDPDSLIVQDDYVFVQLTSGGRPHYYVSYRRSPFAQMKLPKYALPKDMHVISTDENQVFAAVQEWNQNDTYNLYISDTRGVYFTLALENVRSSRGPEGNVMIDLYEVAGIKGMFLANKKIDNQVKTFITYNKGRDWRLLQAPDADLRGDPVHCLLPYCSLHLHLKVSENPYTSGIIASRDTAPSIIVASGNIGSELSDSDISMFVSSDAGNTWRQIFEEEHSILYLDQGGVLVAMKHTSLPIRHLWLSFDEGRSWSKYSFTSIPLFVDGVLGEPGEETLIMTVFGHFSHRSEWQLVKVDYKSIFDRRCAEEDYRPWQLHSQGEACIMGAKRIYKKRKSERKCMQKYAGAMESEPCVCTEADFDCDYGYERHSNGQCLPAFWFNPSSLSKDCSLGQSYLNSAGYRKVVSNNCTDGVREQYTAKPQKCPGKAPRGLRIVTADGKLTAEQGHNVTLMVQLEEGDVQRTLIQVDFGDGIAVSYVNLSSMEDGIKHVYQNVGIFRVTVQVDNSLGSDSAVLYLHVTCPLEHVHLSLPFVTTKNKEVNATAVLWPSQVGTLTYVWWYGNNTEPLITLEGSISFKFTSEGMNTITVQVSAGNAILQDTKTIAVYEEFRSLRLAFSPNLDDYNPDIPEWRRDISRVIKKSLVEATGIPSQHILVAVLPGLPTAAELFVLPYQDGTRENKRSPEDLEQISEVLIHKLNQNLVHFELKPGVQVLVHAAHLTAAPLVDLTPTHS
modifications: 125I-labelled (radioiodinated; residues not stated)
B1: the binding entry is listed as “binds”.

These data come from patent US20120207721A1.
